Results are given in words; binding and its absence hold for the method and conditions named. For part of these data: In cells and extracts the contact can be indirect. Some entries that bind do so weakly or less than the wild type.
Tests used:
[1] = target: endogenous caveolin-1 (THP-1 cell lysate, monocyte lysate) (human) (UniProt Q03135); assay: affinity column of CD26 on ADA-Sepharose with THP-1 lysate, high-salt elution, silver stain, MALDI-TOF MS
[2] = target: endogenous caveolin-1 (THP-1 cell lysate, monocyte lysate) (human) (UniProt Q03135); assay: GST pull-down from THP-1 lysate, immunoblot with anti-caveolin-1
[3] = target: CD26 in J.CD26 cell lysate (Jurkat T cells with stable expression of CD26) (UniProt P27487); assay: GST pull-down from J.CD26 lysate, immunoblot with anti-CD26
[4] = target: endogenous caveolin-1 (THP-1 cell lysate, monocyte lysate) (human) (UniProt Q03135); assay: co-immunoprecipitation in both directions from THP-1 cells cocultured with sCD26

Protein sequences, listed by entry. Tags and fused reporters are not part of them. Lines headed by an entry give the natural chain unless they say otherwise; changes in a name come on top. Residues count along the entry.
UniProt Q03135: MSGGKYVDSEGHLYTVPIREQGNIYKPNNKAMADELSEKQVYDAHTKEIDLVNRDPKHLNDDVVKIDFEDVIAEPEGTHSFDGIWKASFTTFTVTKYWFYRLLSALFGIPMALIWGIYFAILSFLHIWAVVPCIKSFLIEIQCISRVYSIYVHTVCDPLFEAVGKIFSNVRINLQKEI
endogenous caveolin-1 (THP-1 cell lysate, monocyte lysate): residues 2-178 of Q03135
UniProt P27487: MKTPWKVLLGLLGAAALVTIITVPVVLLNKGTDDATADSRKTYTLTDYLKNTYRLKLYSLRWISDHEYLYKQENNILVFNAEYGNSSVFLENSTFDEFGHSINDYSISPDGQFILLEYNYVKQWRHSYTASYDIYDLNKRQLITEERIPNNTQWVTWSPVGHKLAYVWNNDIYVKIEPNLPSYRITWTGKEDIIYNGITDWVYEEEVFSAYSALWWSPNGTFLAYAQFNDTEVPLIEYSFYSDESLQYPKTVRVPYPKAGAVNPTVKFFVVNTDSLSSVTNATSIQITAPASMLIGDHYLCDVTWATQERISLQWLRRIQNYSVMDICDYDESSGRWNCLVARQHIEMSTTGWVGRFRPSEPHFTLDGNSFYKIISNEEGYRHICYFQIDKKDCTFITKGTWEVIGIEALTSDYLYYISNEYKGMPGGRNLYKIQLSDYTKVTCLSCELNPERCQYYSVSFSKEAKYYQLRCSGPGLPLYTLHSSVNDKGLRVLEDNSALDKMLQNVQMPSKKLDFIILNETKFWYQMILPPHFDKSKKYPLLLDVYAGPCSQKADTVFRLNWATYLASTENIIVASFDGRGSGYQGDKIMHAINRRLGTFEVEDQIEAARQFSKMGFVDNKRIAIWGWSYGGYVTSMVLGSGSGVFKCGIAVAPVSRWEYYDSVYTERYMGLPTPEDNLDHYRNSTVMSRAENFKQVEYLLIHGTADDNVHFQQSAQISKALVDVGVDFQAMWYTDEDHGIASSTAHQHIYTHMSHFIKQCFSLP

| Substance | binding [3] | other results |
| --- | --- | --- |
| CD26 bound on adenosine deaminase-Sepharose beads (CD26-ADA beads) (from UniProt P27487 29-766) (enzyme) | – | binding [1]: binds |
| GST-CD26 D3 (residues 31-429) (from UniProt P27487 31-429) | – | binding [2]: binds |
| GST-Cav-1 (82-178) (from UniProt Q03135 82-178) | binds | – |
| recombinant soluble CD26 (rsCD26 wt) (from UniProt P27487 29-766) (enzyme) | – | binding [4]: binds |

Second part, led by results:

| binding [3] | Substance | other results |
| --- | --- | --- |
| binds | GST-Cav-1 (1-101) (from UniProt Q03135 1-101) | – |
| binds | GST-Cav-1 wt (from UniProt Q03135 1-178) | – |
